Reference: EP4311550A1, “CHLOROPHYLLIDE DERIVATIVES FOR USE IN THE PREVENTION OR TREATMENT OF BACTERIAL INFECTION” (Université de Liège, priority 2022, dated 2024)
At least one structure is not confirmed: it was looked up by name or label, or the drawing left a doubt.

System: Staphylococcus aureus (ATCC 25923)
Assay: disk diffusion assay (growth inhibition halo)
Type: cell-based
Conditions: ratio between inhibition diameter and logarithm concentration; incubation in the dark; symbols not defined
Procedure: The antimicrobial activity of these extracts was tested against Gram-positive and Gram-negative bacteria, yeasts and fungi by the diffusion disk method. The bacteria tested were Staphylococcus aureus (ATCC 25923), Enterococcus faecium (ATCC 19434), Escherichia coli (ATCC 25922), Pseudomonas aeruginosa (ATCC 27853), Klebsiella pneumoniae (ATCC 13883), methicillin resistant S. aureus (MRSA, ATCC43300) and Bacillus subtilis 168. The yeasts tested were Candida albicans (MUCL 29800), Saccharomyces cerevisiae (MUCL 31497) and the fungus Aspergillus niger (IHEM 3415). Mueller-Hinton II culture medium was used for cultivating S.aureus, E. coli, P. aeruginosa and K. pneumoniae; Brain Heart infusion Broth for E. faecium; Yeast Peptone Dextrose Broth for C. albicans and A. niger and S. cerevisiae. […]
The injection volume was fixed at 100 µL, the sample temperature in the autosampler was 10°C and the column was thermostatized at 37°C. The effluent was monitored by a photodiode array detector (Waters 2998 PDA detector, detection range: 200-800 nm) and collected using an automatic fraction collector (Waters Fraction Collector III, volume fraction: 500 µl). […] Several fractions were selected for their antibacterial activity and preparative purifications were then carried out to obtain higher quantities of these compounds to allow their identification and subsequently their characterization. […]

SMILES: C=CC1=C(C)C2=NC1=CC1=NC(=Cc3[n-]c4c(c3C)=C([O-])C(C(=O)OC)C=4C3=NC(=C2)C(C)C3CCC(=O)OC)C(CC)=C1C.[Mg+2] (stereo not shown) [methyl chlorophyllide a, reference compound]
- specific activity in the dark: -
